Our source for the binding values is paper PMC4887332.

No constants are given. Whether binding was seen depends on the method and setting. In cells and extracts the contact can be indirect. Some binding calls cover weakened binding; strength is not graded here. For part of these data: Where a sequence is shown, tags or fusion partners need not be part of it.

One assay has as its target T1, Kv2.1 α-subunit (UniProt P15387).
T1 sequence: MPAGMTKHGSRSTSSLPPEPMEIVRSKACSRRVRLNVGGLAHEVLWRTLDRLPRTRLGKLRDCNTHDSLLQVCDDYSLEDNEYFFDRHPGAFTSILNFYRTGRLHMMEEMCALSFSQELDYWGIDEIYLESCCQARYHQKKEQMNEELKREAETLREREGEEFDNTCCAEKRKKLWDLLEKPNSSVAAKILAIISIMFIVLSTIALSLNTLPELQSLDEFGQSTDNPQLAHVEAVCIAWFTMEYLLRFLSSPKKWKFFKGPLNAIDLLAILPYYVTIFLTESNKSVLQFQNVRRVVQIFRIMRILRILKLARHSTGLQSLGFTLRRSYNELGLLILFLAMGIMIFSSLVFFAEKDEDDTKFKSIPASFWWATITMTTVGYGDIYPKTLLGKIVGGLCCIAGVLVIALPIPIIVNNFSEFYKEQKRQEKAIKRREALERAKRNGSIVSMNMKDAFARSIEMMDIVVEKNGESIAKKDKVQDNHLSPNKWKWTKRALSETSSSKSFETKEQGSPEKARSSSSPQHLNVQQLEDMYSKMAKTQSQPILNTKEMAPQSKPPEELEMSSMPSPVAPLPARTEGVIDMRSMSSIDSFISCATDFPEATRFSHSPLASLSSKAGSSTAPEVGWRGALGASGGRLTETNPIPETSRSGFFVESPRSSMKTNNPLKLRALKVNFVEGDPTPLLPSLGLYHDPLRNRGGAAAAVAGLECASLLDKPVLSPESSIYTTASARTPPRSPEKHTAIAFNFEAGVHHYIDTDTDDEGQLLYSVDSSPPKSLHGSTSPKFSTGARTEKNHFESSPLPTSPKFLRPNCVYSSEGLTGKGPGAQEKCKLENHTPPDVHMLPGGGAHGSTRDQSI
Nature of the assay: co-IP; anti-Kv2.1 antibody linked to dynabeads protein G; supernatant of lysed HEK-293 cells; eluted fraction blotted by Kv2.1 antibody and anti flotillin-1 antibody.

The target in another assay is T2, Kv2.1-CsfGFP (UniProt P15387).
T2 sequence: T1 sequence
In words: split reporter; BiFC based on superfolder GFP (NsfGFP and CsfGFP fragments); confocal images of living HEK-293 cells, co-transfected, 24 h after transfection.

Another assay addresses T3, flotillin-2-CsfGFP (UniProt Q14254).
T3 sequence: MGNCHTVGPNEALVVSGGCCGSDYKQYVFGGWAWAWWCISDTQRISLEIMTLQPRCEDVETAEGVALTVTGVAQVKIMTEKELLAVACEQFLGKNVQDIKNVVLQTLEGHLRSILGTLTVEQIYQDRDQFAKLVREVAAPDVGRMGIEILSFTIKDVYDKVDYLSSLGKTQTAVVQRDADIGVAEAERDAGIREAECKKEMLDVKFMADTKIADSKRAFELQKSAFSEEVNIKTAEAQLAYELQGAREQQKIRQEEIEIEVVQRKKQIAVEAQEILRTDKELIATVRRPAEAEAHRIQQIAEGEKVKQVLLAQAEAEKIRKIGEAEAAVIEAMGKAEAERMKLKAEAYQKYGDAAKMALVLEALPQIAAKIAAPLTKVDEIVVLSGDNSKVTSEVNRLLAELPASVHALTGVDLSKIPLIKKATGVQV
Described as above.

B1: Flotillin-1 (protein, UniProt O75955 1-427)
chain: MFFTCGPNEAMVVSGFCRSPPVMVAGGRVFVLPCIQQIQRISLNTLTLNVKSEKVYTRHGVPISVTGIAQVKIQGQNKEMLAAACQMFLGKTEAEIAHIALETLEGHQRAIMAHMTVEEIYKDRQKFSEQVFKVASSDLVNMGISVVSYTLKDIHDDQDYLHSLGKARTAQVQKDARIGEAEAKRDAGIREAKAKQEKVSAQYLSEIEMAKAQRDYELKKAAYDIEVNTRRAQADLAYQLQVAKTKQQIEEQRVQVQVVERAQQVAVQEQEIARREKELEARVRKPAEAERYKLERLAEAEKSQLIMQAEAEAASVRMRGEAEAFAIGARARAEAEQMAKKAEAFQLYQEAAQLDMLLEKLPQVAEEISGPLTSANKITLVSSGSGTMGAAKVTGEVLDILTRLPESVERLTGVSISQVNHKPLRTA
Consider B1, for which, in the assay with Kv2.1 α-subunit, the binding result is on record as “binds”.

B2: flotillin-1-NsfGFP (protein, UniProt O75955 1-427)
chain: B1 chain
For B2, the binding entry with Kv2.1-CsfGFP and with flotillin-2-CsfGFP was “binds” each time.
